Assay results as given in PMC6006850, “Assessment of new HDAC inhibitors for immunotherapy of malignant pleural mesothelioma” (Clinical Epigenetics, 2018).

Test system: CD8 T-cell clones
Assay: Cell viability (CellTiter-Glo) of CD8 T-cell clones treated with HDACi, with or without decitabine
Type: cell-based
Details: Homo sapiens, 48 h HDACi, no decitabine pretreatment

O=C(CCCCCCC(=O)Nc1ccccc1)NO [SAHA, Suberoylanilide hydroxamic acid]
IC50: 1290 ± 50 nM
